# PubChem BioAssay AID504467 (National Center for Advancing Translational Sciences (NCATS), 2011)
# Screen size: about 330,000 compounds; about 7,700 (2.3%) were called active. This list was built around the results that the source calls inconclusive (neither active nor inactive); the mix of calls is not that of the screen. Calls come from the whole dose curve; as a rule, active = well fitted inhibition curve with a large enough effect; inconclusive = small, poorly fitted or top-dose-only effect, or effect the other way; inactive = flat fitted curve, though single readings scatter. Where the call is inconclusive, the potency comes from a doubtful curve fit.
# Assay: qHTS screen for small molecules that inhibit ELG1-dependent DNA repair in human embryonic kidney (HEK293T) cells expressing luciferase-tagged ELG1; note: nearly all actives have a fitted effect of over 55% in size
# Settings: HEK293T ELG1-luciferase reporter, luminescence, 16 h, DNA damage induced by 5-fluorouridine; series mostly up to 46.1 µM
# In short: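 HEK293T cells expressing luciferase-tagged ELG1 (2,000/well) received 5-Fluorouridine plus compound or DMSO for 16 hr at 37 °C. Luciferase was read by ONE-Glo luminescence after 30 min at room temperature.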
# Potency is the fitted concentration of half-maximal effect.
row,SMILES,Potency
1,COc1ccccc1C(=O)Nc1c2c(nn1-c1ccc([N+](=O)[O-])cc1)CS(=O)(=O)C2,"inconclusive: 16.4 µM [activator, partial curve, poor fit]"
2,O=C(CNC(=O)c1ccco1)Nc1ccc2c(c1)OCCO2,"inconclusive: 5.17 µM [activator, partial curve]"
3,COc1ccc(-n2c(Cc3cccn3C)nnc2SCC(=O)Nc2ccc3c(c2)OCCO3)cc1,"inconclusive: 29.1 µM [inhibitor, single point]"
4,O=C(COC(=O)c1cc(=O)[nH]c(=O)[nH]1)Nc1cccc(Cl)c1,inactive
5,Cc1ccc(O)c(N=Nc2ccc(S(=O)(=O)N3CCCC3)cc2)c1,"inconclusive: 18.3 µM [activator, single point]"
6,O=C(COc1ccccc1F)N1CCCc2ccccc21,inactive
7,CC1(C)[C@@H](O)CC[C@]2(C)[C@H]3C(=O)C=C4[C@@H]5C[C@@](C)(C(=O)O)CC[C@]5(C)CC[C@@]4(C)[C@]3(C)CC[C@@H]12,inactive
8,CC(C)Sc1nc2c(c(=O)[nH]c(=O)n2C)n1Cc1ccc(Cl)cc1,inactive
9,COc1ccc2nc(NC(=O)CSc3nnnn3C)sc2c1,"inconclusive: 16.4 µM [activator, partial curve]"
10,COc1cccc(-n2nc(-c3ccnn3-c3cccc(Cl)c3)c(=O)n(C)c2=O)c1,inactive
11,NNC(=O)c1cc(-c2cccs2)nc2ccccc12,"inconclusive: 16.4 µM [inhibitor, partial curve, poor fit]"
12,CCOc1ccc(-c2[nH]ncc2-c2ccccc2)c(O)c1,inactive
13,CCN(CC)S(=O)(=O)c1cccc(NC(=O)c2cncc(Br)c2)c1,"inconclusive: 20.6 µM [inhibitor, single point]"
14,COCCNCCOc1ccccc1-c1ccccc1,"inconclusive: 5.8 µM [inhibitor, partial curve, poor fit]"
15,CN(C)C(CNC(=O)c1cccc(C(F)(F)F)c1)c1ccco1 (stereo not drawn),inactive
16,COc1ccccc1N1CCN(C(=O)NCc2cccc(C(F)(F)F)c2)CC1,inactive
17,CC(=O)c1cccc(NC(=O)c2cc(-c3ccc(C)cc3)on2)c1,"inconclusive: 8.2 µM [activator, partial curve]"
18,N#Cc1cc([N+](=O)[O-])ccc1NC(=O)COC(=O)C12CC3CC(CC(C3)C1)C2,active: 10.3 µM
19,O=C(Nc1cc(F)ccc1F)C1CCCN(c2ncnc3c2nc2n3CCCCC2)C1 (stereo not drawn),"inconclusive: 23.1 µM [inhibitor, single point]"
20,COc1ccc(OCC(=O)Nc2c3c(nn2C(C)(C)C)CSC3)cc1,"inconclusive: 29.1 µM [inhibitor, partial curve, poor fit]"
21,Cc1ccc(C(=O)Oc2cccc(NC(=O)c3ccco3)c2)cc1S(=O)(=O)N1CCC(C)CC1,"inconclusive: 23.1 µM [activator, partial curve, poor fit]"
22,COc1ccc(Nc2nnc(-c3ccc(O)cc3)c3ccccc23)cc1C(N)=O,"inconclusive: 29.1 µM [inhibitor, single point]"

# Three entries out of the list, ordered by molecular weight, descending:
row,SMILES,Potency
19,O=C(Nc1cc(F)ccc1F)C1CCCN(c2ncnc3c2nc2n3CCCCC2)C1 (stereo not drawn),"inconclusive: 23.1 µM [inhibitor, single point]"
4,O=C(COC(=O)c1cc(=O)[nH]c(=O)[nH]1)Nc1cccc(Cl)c1,inactive
17,CC(=O)c1cccc(NC(=O)c2cc(-c3ccc(C)cc3)on2)c1,"inconclusive: 8.2 µM [activator, partial curve]"

# (listing goes on)

row,SMILES,Potency
1,CNC(=S)Nc1cc2oc3ccccc3c2cc1OC,"inconclusive: 20.6 µM [activator, partial curve, poor fit]"
2,COC(=O)CN1C(=S)N(c2ccc(Cl)cc2)C(=O)C1CC(=O)Nc1ccccc1 (stereo not drawn),inactive
3,CCOCCCNC(=S)NCCCNc1nc2c(C)cc(C)cc2cc1C#N,inactive
4,COc1ccc(NC(=S)N/N=C/c2ccc(F)c(F)c2)cc1,inactive
5,CN(Cc1ccccc1)C(=O)c1ccc(S(=O)(=O)N(C)c2ccccc2)cc1,inactive
6,O=C(c1ccc(COc2c(F)c(F)c(F)c(F)c2F)o1)N1CCN(Cc2ccc3c(c2)OCO3)CC1,"inconclusive: 25.9 µM [inhibitor, partial curve, poor fit]"
7,CN(Cc1cc(=O)n2ccsc2n1)c1ccccc1,inactive
8,CN(c1ccccc1)S(=O)(=O)c1ccc(C(=O)N2CCN(c3ccccc3Cl)CC2)cc1,"inconclusive: 29.1 µM [inhibitor, single point]"
9,Cc1cc(C(=O)CSc2n[nH]c(N)n2)c(C)n1-c1cccc(F)c1,"inconclusive: 23.1 µM [activator, single point]"
10,CCCCn1c(N)c(N(CC(C)C)C(=O)C2CC(=O)N(c3ccc4c(c3)OCCO4)C2)c(=O)[nH]c1=O (stereo not drawn),"inconclusive: 6.51 µM [activator, partial curve, poor fit]"
11,CC1CN/C(=C\C(=O)c2ccccc2)C(=O)N1 (stereo not drawn),"inconclusive: 6.31 µM [activator, partial curve]"
12,CNc1cc([N+](=O)[O-])ccc1N/C=C/C(=O)c1cccs1,"inconclusive: 20.6 µM [activator, partial curve, poor fit]"
13,Nc1cc2sc(-c3ccc(C(=O)O)cc3)nc2cc1Cl,"inconclusive: 2.59 µM [activator, full curve]"
14,CCCCC(c1nnnn1Cc1ccco1)N1CCN(c2nc3ccccc3s2)CC1 (stereo not drawn),"inconclusive: 25.9 µM [inhibitor, single point]"
15,COc1ccc(C2=NOC(Cn3nc(-c4ccccc4)cc3C(=O)NCc3ccccc3OC)C2)cc1 (stereo not drawn),"inconclusive: 4.11 µM [inhibitor, full curve, poor fit]"
16,Brc1ccc2nc(N3CCN(c4ccccc4)CC3)sc2c1,"inconclusive: 4.61 µM [activator, full curve]"
17,Cc1ccc2c(n1)sc1c(-c3ccc(Br)cc3)c(C#N)c(N)nc12,inactive
18,O=C(Nc1ccccc1)c1ccc2snnc2c1,"inconclusive: 16.4 µM [activator, partial curve]"
19,O=S(=O)(c1cccc(Cn2nnc(-c3ccc(F)cc3)n2)c1)N1CCOCC1,"inconclusive: 29.1 µM [inhibitor, partial curve, poor fit]"
20,O=C(NNS(=O)(=O)c1ccccc1[N+](=O)[O-])c1ccccc1[N+](=O)[O-],inactive
21,COC(=O)c1ccc(COc2ccc(/C=N/Nc3cccc(C(=O)O)c3)cc2)cc1,"inconclusive: 2.91 µM [activator, full curve]"
